# From the supplement of paper PMC8728848
# This is one part of the list.
# Experiments:
# Test in all cases: glycan array binding signal (z-score within array); higher = stronger binding
# Conditions in all cases: glycan notation: IUPAC condensed, linker removed
# Neu5Ac(a2-3)Gal = biological target: Neu5Ac(a2-3)Gal
# Outline: (§1)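 The binding signal is a Z-score computed within each array and averaged over linkers. Arrays of the same protein sequence at different concentrations or buffers were also averaged together. Data originate from 3228 arrays in the Consortium for Functional Glycomics database, kept only where the protein sequence was available.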
# [1] = biological target: Neu5Ac(a2-3)Gal(b1-3)GalNAc
# Outline: as §1
# [2] = biological target: Neu5Ac(a2-3)Gal(b1-3)GalNAc(b1-3)Gal(a1-4)Gal(b1-4)Glc
# Outline: as §1
# [3] = biological target: Neu5Ac(a2-3)Gal(b1-3)GalNAc(b1-4)[Neu5Ac(a2-3)]Gal(b1-4)Glc
# Outline: as §1
# [4] = biological target: Neu5Ac(a2-3)Gal(b1-3)GalNAc(b1-4)[Neu5Ac(a2-8)Neu5Ac(a2-3)]Gal(b1-4)Glc
# Outline: as §1
# [5] = biological target: Neu5Ac(a2-3)Gal(b1-3)GalNAc6S
# Outline: as §1
# [6] = biological target: Neu5Ac(a2-3)Gal(b1-3)GlcNAc
# Outline: as §1
# [7] = biological target: Neu5Ac(a2-3)Gal(b1-3)GlcNAc(b1-2)Man
# Outline: as §1
# [8] = biological target: Neu5Ac(a2-3)Gal(b1-3)GlcNAc(b1-2)Man(a1-3)[GlcNAc(b1-4)][Neu5Ac(a2-3)Gal(b1-3)GlcNAc(b1-2)Man(a1-6)]Man(b1-4)GlcNAc(b1-4)GlcNAc
# Outline: as §1
# [9] = biological target: Neu5Ac(a2-3)Gal(b1-3)GlcNAc(b1-2)Man(a1-3)[Neu5Ac(a2-3)Gal(b1-3)GlcNAc(b1-2)Man(a1-6)]Man(b1-4)GlcNAc(b1-4)GlcNAc
# Outline: as §1
# [10] = biological target: Neu5Ac(a2-3)Gal(b1-3)GlcNAc(b1-3)Gal(b1-3)GlcNAc
# Outline: as §1
# [11] = biological target: Neu5Ac(a2-3)Gal(b1-3)GlcNAc(b1-3)Gal(b1-4)GlcNAc
# Outline: as §1
# [12] = biological target: Neu5Ac(a2-3)Gal(b1-3)GlcNAc(b1-3)GalNAc
# Outline: as §1
# [13] = biological target: Neu5Ac(a2-3)Gal(b1-3)GlcNAc(b1-4)Gal(b1-4)Glc
# Outline: as §1
# [14] = biological target: Neu5Ac(a2-3)Gal(b1-3)GlcNAc(b1-6)GalNAc
# Outline: as §1
# [15] = biological target: Neu5Ac(a2-3)Gal(b1-3)GlcNAc6S
# Outline: as §1
# [16] = biological target: Neu5Ac(a2-3)Gal(b1-3)[Fuc(a1-4)]GlcNAc
# Outline: as §1
# [17] = biological target: Neu5Ac(a2-3)Gal(b1-3)[Fuc(a1-4)]GlcNAc(b1-3)Gal(b1-3)[Fuc(a1-4)]GlcNAc
# Outline: as §1
# [18] = biological target: Neu5Ac(a2-3)Gal(b1-3)[Fuc(a1-4)]GlcNAc(b1-3)Gal(b1-4)[Fuc(a1-3)]GlcNAc
# Outline: as §1
# [19] = biological target: Neu5Ac(a2-3)Gal(b1-3)[GlcNAc(b1-6)]GalNAc
# Outline: as §1
# [20] = biological target: Neu5Ac(a2-3)Gal(b1-3)[Neu5Ac(a2-6)]GalNAc
# Outline: as §1
# [21] = biological target: Neu5Ac(a2-3)Gal(b1-3)[Neu5Ac(a2-6)]GlcNAc(b1-3)[Fuc(a1-3)[Gal(b1-4)]GlcNAc(b1-6)]Gal(b1-4)Glc
# Outline: as §1
# [22] = biological target: Neu5Ac(a2-3)Gal(b1-3)]Neu5Ac(a2-3)Gal(b1-4)]GlcNAc
# Outline: as §1
# Neu5Ac(a2-3)Gal(b1-4)Glc = biological target: Neu5Ac(a2-3)Gal(b1-4)Glc
# Outline: as §1
# [23] = biological target: Neu5Ac(a2-3)Gal(b1-4)GlcNAc
# Outline: as §1
# [24] = biological target: Neu5Ac(a2-3)Gal(b1-4)GlcNAc(b1-2)Man
# Outline: as §1
# [25] = biological target: Neu5Ac(a2-3)Gal(b1-4)GlcNAc(b1-2)Man(a1-3)[GlcNAc(b1-4)][Neu5Ac(a2-3)Gal(b1-4)GlcNAc(b1-2)Man(a1-6)]Man(b1-4)GlcNAc(b1-4)GlcNAc
# Outline: as §1
# [26] = biological target: Neu5Ac(a2-3)Gal(b1-4)GlcNAc(b1-2)Man(a1-3)[Neu5Ac(a2-3)Gal(b1-4)GlcNAc(b1-2)Man(a1-6)]Man(b1-4)GlcNAc(b1-4)GlcNAc
# Outline: as §1
# [27] = biological target: Neu5Ac(a2-3)Gal(b1-4)GlcNAc(b1-2)Man(a1-3)[Neu5Ac(a2-3)Gal(b1-4)GlcNAc(b1-2)Man(a1-6)]Man(b1-4)GlcNAc(b1-4)[Fuc(a1-6)]GlcNAc
# Outline: as §1
# [28] = biological target: Neu5Ac(a2-3)Gal(b1-4)GlcNAc(b1-2)Man(a1-3)[Neu5Ac(a2-6)Gal(b1-4)GlcNAc(b1-2)Man(a1-6)]Man(b1-4)GlcNAc(b1-4)GlcNAc
# Outline: as §1
# [29] = biological target: Neu5Ac(a2-3)Gal(b1-4)GlcNAc(b1-2)[Neu5Ac(a2-3)Gal(b1-4)GlcNAc(b1-4)]Man(a1-3)[GlcNAc(b1-4)][Neu5Ac(a2-3)Gal(b1-4)GlcNAc(b1-2)[Neu5Ac(a2-3)Gal(b1-4)GlcNAc(b1-6)]Man(a1-6)]Man(b1-4)GlcNAc(b1-4)GlcNAc
# Outline: as §1
# [30] = biological target: Neu5Ac(a2-3)Gal(b1-4)GlcNAc(b1-2)[Neu5Ac(a2-3)Gal(b1-4)GlcNAc(b1-4)]Man(a1-3)[GlcNAc(b1-4)][Neu5Ac(a2-3)Gal(b1-4)GlcNAc(b1-4)Man(a1-6)]Man(b1-4)GlcNAc(b1-4)GlcNAc
# Outline: as §1
# [31] = biological target: Neu5Ac(a2-3)Gal(b1-4)GlcNAc(b1-2)[Neu5Ac(a2-3)Gal(b1-4)GlcNAc(b1-6)]Man(a1-6)[Neu5Ac(a2-3)Gal(b1-4)GlcNAc(b1-2)Man(a1-3)]Man(b1-4)GlcNAc(b1-4)GlcNAc
# Outline: as §1
# [32] = biological target: Neu5Ac(a2-3)Gal(b1-4)GlcNAc(b1-2)[Neu5Ac(a2-3)Gal(b1-4)GlcNAc(b1-6)]Man(a1-6)[Neu5Ac(a2-3)Gal(b1-4)GlcNAc(b1-2)Man(a1-3)][GlcNAc(b1-4)]Man(b1-4)GlcNAc(b1-4)GlcNAc
# Outline: as §1
# [33] = biological target: Neu5Ac(a2-3)Gal(b1-4)GlcNAc(b1-3)Gal
# Outline: as §1
# [34] = biological target: Neu5Ac(a2-3)Gal(b1-4)GlcNAc(b1-3)Gal(b1-3)GlcNAc
# Outline: as §1
# [35] = biological target: Neu5Ac(a2-3)Gal(b1-4)GlcNAc(b1-3)Gal(b1-4)GlcNAc
# Outline: as §1
binder,measurement,setting,value
SP15308C-bot-338-23-338 (Bacteroides ovatus) (protein) DEWTDEQFKQLISFKTQPGGWGVTDVHVRYANSAKYTYNLPVLVSGSTDNTDDRLVSFSLRDDTLDILNFEKFGNRPELYFRELPQKYYSFPKELTIPAGQSHALLPIEFSLDGLDDSQKWALPLKVCEDANGTYAVNPRKYYRTAVLRPILFNEFSGRFSGSSLLGTMAGESDIKFSSTEIKLNVVTDSIVFFYAGQRTEDYEDRINYKVFLQFTGDKVDSKKDLYKMKIWAENEKLKFNSYSTPTYKVSSEMDATKTYLKHTYIVISDIDFDFVDYTSVPNYEIEYNMKGGLSVSRDLDTRKPDEDQGSDSKWW,glycan array binding signal (z-score),Neu5Ac(a2-3)Gal,0.167
same,glycan array binding signal (z-score),[1],-0.043
same,glycan array binding signal (z-score),[2],-0.134
same,glycan array binding signal (z-score),[3],-0.631
same,glycan array binding signal (z-score),[4],-0.56
same,glycan array binding signal (z-score),[5],-0.22
same,glycan array binding signal (z-score),[6],0.243
same,glycan array binding signal (z-score),[7],-0.04
same,glycan array binding signal (z-score),[8],-0.079
same,glycan array binding signal (z-score),[9],0.192
same,glycan array binding signal (z-score),[10],-0.6
same,glycan array binding signal (z-score),[11],-0.278
same,glycan array binding signal (z-score),[12],-0.722
same,glycan array binding signal (z-score),[13],-0.338
same,glycan array binding signal (z-score),[14],-0.58
same,glycan array binding signal (z-score),[15],0.313
same,glycan array binding signal (z-score),[16],0.113
same,glycan array binding signal (z-score),[17],0.108
same,glycan array binding signal (z-score),[18],-0.887
same,glycan array binding signal (z-score),[19],0.217
same,glycan array binding signal (z-score),[20],-0.575
same,glycan array binding signal (z-score),[21],-0.841
same,glycan array binding signal (z-score),[22],-0.395
same,glycan array binding signal (z-score),Neu5Ac(a2-3)Gal(b1-4)Glc,0.324
same,glycan array binding signal (z-score),[23],0.023
same,glycan array binding signal (z-score),[24],1.38
same,glycan array binding signal (z-score),[25],0.031
same,glycan array binding signal (z-score),[26],0.647
same,glycan array binding signal (z-score),[27],0.225
same,glycan array binding signal (z-score),[28],-0.479
same,glycan array binding signal (z-score),[29],-0.286
same,glycan array binding signal (z-score),[30],-0.025
same,glycan array binding signal (z-score),[31],0.382
same,glycan array binding signal (z-score),[32],-0.756
same,glycan array binding signal (z-score),[33],0.337
same,glycan array binding signal (z-score),[34],-0.319
same,glycan array binding signal (z-score),[35],-0.078

# Exported tab-delimited: part of the list above
binder	measurement	setting	value
SP15308C-bot-338-23-338 (Bacteroides ovatus) (protein) DEWTDEQFKQLISFKTQPGGWGVTDVHVRYANSAKYTYNLPVLVSGSTDNTDDRLVSFSLRDDTLDILNFEKFGNRPELYFRELPQKYYSFPKELTIPAGQSHALLPIEFSLDGLDDSQKWALPLKVCEDANGTYAVNPRKYYRTAVLRPILFNEFSGRFSGSSLLGTMAGESDIKFSSTEIKLNVVTDSIVFFYAGQRTEDYEDRINYKVFLQFTGDKVDSKKDLYKMKIWAENEKLKFNSYSTPTYKVSSEMDATKTYLKHTYIVISDIDFDFVDYTSVPNYEIEYNMKGGLSVSRDLDTRKPDEDQGSDSKWW	glycan array binding signal (z-score)	[8]	-0.079
same	glycan array binding signal (z-score)	[29]	-0.286
